Experimental findings from publication PMC8514465, “Functional and structural analysis of catabolite control protein C that responds to citrate” (Scientific Reports, 2021) are described below.

This series deals with T1, BaCcpC-FL (Bacillus amyloliquefaciens) (UniProt A0A9P1JGF9).
T1 sequence (looked up): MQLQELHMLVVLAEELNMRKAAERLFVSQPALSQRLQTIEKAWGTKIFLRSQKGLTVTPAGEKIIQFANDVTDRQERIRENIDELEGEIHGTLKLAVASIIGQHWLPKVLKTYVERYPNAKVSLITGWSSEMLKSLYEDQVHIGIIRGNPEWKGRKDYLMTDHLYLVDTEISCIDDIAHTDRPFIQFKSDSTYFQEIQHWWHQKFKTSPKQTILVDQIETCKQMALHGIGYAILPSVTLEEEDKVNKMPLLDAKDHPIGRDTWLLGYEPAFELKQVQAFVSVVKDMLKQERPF
Put plainly: EMSA. The settings on record: 800 nM DNA, EMSA at room temperature, 30 min, 6% acrylamide gel in 0.5x TBE on ice, binding buffer not stated (Beyotime chemiluminescent EMSA kit), recombinant protein, residues 1-293, protein details: N-terminal His6 tag, removed with TEV protease, label: biotin. On the technique in general: Mobility shift assays separate free from complexed probe on a gel.

Construct, isoform or probe ends are uncertain for at least one entry. No signal at the amounts used counts as a negative. Where a protein sequence is shown, tags need not be part of it. Weaker means in comparison with the reference protein, sequence or condition of that experiment.

Take “TGATAAGACGATCTTATTGT (double strand) [citB-PI]”: for the setting “40 uM protein”, the binding result is “no binding”.

Regarding “TGATAAGACGATCTTATTGTATTTAATAAAAACATTGATATTTACTTATGTATGAT (double strand) [citB-P]”, the binding result was “binds” (2.5-40 uM protein, complete shift as protein increases) and “binds more weakly” (sodium citrate (0-70 uM as printed), 40 uM protein, slightly suppressed).

Consider “TGATATTTACTTATGTATGAT (double strand) [citB-PII]”, for which the binding result (40 uM protein) is “no binding”.
